Results on one substance are retold here after article PMC8046669.

The chains behind the UniProt entries cited, without tags or fusion partners. Where a name states a change or a piece, a line headed by the entry shows the natural chain unless it says otherwise.
UniProt P32558: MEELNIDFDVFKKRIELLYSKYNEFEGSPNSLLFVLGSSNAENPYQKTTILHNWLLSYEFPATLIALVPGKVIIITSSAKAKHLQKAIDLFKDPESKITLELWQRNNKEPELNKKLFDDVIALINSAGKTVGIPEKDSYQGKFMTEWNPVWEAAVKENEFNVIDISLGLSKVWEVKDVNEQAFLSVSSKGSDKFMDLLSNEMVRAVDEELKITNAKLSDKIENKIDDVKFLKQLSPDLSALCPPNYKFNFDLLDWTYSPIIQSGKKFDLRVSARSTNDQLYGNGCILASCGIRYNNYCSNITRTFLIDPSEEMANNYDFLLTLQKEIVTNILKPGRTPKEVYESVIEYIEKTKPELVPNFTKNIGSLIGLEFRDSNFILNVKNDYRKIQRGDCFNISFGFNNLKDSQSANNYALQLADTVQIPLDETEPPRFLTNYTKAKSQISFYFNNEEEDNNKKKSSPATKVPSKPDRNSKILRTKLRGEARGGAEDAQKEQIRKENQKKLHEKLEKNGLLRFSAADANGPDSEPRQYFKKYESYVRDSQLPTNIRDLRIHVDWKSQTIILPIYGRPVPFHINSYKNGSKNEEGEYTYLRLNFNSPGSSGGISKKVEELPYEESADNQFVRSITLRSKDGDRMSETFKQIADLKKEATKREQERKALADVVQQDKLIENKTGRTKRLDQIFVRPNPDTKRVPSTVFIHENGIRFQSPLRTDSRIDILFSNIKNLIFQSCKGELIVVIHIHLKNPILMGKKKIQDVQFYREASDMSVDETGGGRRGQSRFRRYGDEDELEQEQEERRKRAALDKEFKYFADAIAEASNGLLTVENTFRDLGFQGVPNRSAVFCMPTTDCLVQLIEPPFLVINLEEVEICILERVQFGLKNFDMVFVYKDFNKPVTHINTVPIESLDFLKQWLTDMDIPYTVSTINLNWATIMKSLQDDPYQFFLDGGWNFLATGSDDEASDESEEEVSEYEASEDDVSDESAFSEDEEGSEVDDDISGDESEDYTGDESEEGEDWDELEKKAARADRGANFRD

The target in the assay is T1, S. cerevisiae Spt4/5 (S. cerevisiae) (UniProt P32914+P27692).
T1 sequence 1: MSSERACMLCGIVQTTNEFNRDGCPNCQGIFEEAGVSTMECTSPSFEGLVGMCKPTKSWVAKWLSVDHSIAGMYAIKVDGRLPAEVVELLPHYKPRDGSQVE
T1 sequence 2: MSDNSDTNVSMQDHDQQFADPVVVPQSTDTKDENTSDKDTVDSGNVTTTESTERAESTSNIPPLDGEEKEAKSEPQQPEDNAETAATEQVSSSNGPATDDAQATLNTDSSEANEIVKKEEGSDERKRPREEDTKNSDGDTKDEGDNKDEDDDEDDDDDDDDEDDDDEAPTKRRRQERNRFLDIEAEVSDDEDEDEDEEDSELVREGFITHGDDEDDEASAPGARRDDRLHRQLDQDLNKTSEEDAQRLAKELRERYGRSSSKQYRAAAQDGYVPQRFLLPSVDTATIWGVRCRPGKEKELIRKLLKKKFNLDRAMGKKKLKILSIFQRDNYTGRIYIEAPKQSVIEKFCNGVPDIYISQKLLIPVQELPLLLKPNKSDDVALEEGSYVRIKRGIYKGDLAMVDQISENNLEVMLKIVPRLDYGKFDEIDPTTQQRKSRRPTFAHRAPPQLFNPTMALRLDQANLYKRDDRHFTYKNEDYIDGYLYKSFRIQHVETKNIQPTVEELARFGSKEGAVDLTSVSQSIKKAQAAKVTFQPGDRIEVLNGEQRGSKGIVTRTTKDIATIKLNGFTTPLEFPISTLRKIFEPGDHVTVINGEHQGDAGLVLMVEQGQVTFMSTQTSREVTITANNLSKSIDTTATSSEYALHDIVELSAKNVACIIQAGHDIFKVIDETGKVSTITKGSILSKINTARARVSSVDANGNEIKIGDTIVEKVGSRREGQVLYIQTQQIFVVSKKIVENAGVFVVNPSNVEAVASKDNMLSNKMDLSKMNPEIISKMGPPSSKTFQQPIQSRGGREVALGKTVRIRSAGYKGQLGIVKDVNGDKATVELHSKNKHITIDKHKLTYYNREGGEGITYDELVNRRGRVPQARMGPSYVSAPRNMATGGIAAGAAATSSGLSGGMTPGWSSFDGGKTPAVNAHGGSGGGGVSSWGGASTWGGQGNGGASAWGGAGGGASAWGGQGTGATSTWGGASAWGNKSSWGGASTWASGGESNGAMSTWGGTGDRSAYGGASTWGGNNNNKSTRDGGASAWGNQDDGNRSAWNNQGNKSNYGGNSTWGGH
Description: cryo-EM structure; transcribing Pol II−Spt4/5−nucleosome−FACT complex, Chd1 withheld; GTP, CTP, UTP and 3'-dATP; 130 mM NaCl, 20 mM Na-HEPES pH 7.4, 3 mM MgCl2; purified by size exclusion chromatography, crosslinked; both purified.

Results are given in words; binding and its absence hold for the method and conditions named.

As to “S. cerevisiae FACT (heterodimer of Spt16 and Pob3) (from UniProt P32558 1-1035; Q04636 1-552) (complex)”, the binding result is reported as “no binding”.
